Patent publication US20220249640A1
These are yes or no findings as the source states them, for the method shown. Some binding calls cover weakened binding; strength is not graded here.

Chains of the proteins cited; added tags and fusions are not shown. Residues count along the entry.
UniProt Q15116, residues 25-167: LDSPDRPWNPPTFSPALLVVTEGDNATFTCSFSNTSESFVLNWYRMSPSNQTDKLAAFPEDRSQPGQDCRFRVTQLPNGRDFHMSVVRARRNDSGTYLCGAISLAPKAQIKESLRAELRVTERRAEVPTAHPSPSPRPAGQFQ

Biological target: PD-1 (soluble, biotinylated, on sensors or coated on plates) (human) (UniProt Q15116)
Assay: Octet, SA sensors coated with biotinylated PD-1, IgG format

binding: binds
B1: P4-B3 IgG1 wild type monomer (antibody, V domains shown)
VH: QVQLVQSGGGLVQPGRSLRLSCAASGFTFDDYAMHWVRQAPGKGLEWVSGISWNSGSIGYADSVKGRFTVSRDNAKNSLYLQMNSLRAEDTAVYYCASDYGDKYYYYGMDVWGKGTTVTVSS
VL: QPGLTQPPSASGTPGQRVTISCSGSSSNIGSNTVNWYQQFPGKAPKLLIFNDNQRPSGVPDRFSASKSGTSASLAISGLQSEDEADYYCAAWDGGLNGRGVFGGGTKLTVLG
